Literature values, collected in patent US20250120943A1, “RIFAMYCIN OPHTHALMIC COMPOSITION AND USE THEREOF” (AMD THERAPEUTICS LLC, priority 2022, published 2025).
For at least one compound, name, drawing or mass did not settle the structure.

System: bacterial infection
Settings: previously evaluated; cited from earlier work

CO[C@H]1/C=C/O[C@@]2(C)Oc3c(C)c(O)c4c(O)c(c(/C=N/N5CCN(C)CC5)c(O)c4c3C2=O)NC(=O)/C(C)=C\C=C\[C@H](C)[C@H](O)[C@@H](C)[C@@H](O)[C@@H](C)[C@H](OC(C)=O)[C@@H]1C [Rifampicin, rifampicin]
Effective systemic dosage to inhibit bacterial infection: 20 mg/kg
